From PubChem BioAssay AID2685 (National Center for Advancing Translational Sciences (NCATS), 2010)
The list shows a part of the results. These are further read-outs of the screen, such as a control signal, another cell line or another target. No call is given for them. Compounds called inactive in the main read-out are mostly missing here. Potencies come from curve fits of mixed quality, noted in brackets.

Assay: qHTS Assay for Lipid Storage Modulators in Drosophila S3 Cells;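 on cell number change: cells counted by Cell Tracker Red CMTPX staining in the red channel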
Conditions: BODIPY lipid droplet fluorescence, 18-24 h; for cell number change: measured here: cell count max response, cells fed with added oleic acid
How it was run: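 Drosophila S3 cells loaded with oleic acid (400 uM, as added) and compounds at several concentrations; lipid droplets imaged by 488-nm laser-scanning cytometry, 500–530 nm intensity and object ratio to cell channel. Percent activity normalized to 20 uM Triacsin C.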

[1] = measured here: lipid fluorescence (Fed channel) AC50, cells fed with added oleic acid
[2] = measured here: cell number channel AC50, cells fed with added oleic acid

Row | SMILES | cell number change [%] | AC50 [1] | AC50 [2]
1 | O=C(Cn1cnc2c(oc3ccccc32)c1=O)N1CCCC1 | 20.5 | 0.82 µM [rising, full curve] | 
2 | Cc1cc(NS(=O)(=O)c2ccccc2)n(-c2ccccc2)n1 | 73.1 | 6.51 µM [rising, single point] | 13 µM [rising, partial curve]
3 | CCC(=O)N1c2ccc(S(=O)(=O)NCc3ccco3)cc2CC1C (configuration not stated) | 6.75 | 0.0651 µM [falling, full curve, poor fit] | 
4 | O=C1c2ccccc2C(=O)N1C(CO)C(O)c1ccc([N+](=O)[O-])cc1 (configuration not stated) | 15.3 |  | 
5 | O=S(=O)(NC(=S)NC1CCCCC1)c1ccc(Br)cc1 | -15.9 | 4.61 µM [falling, single point] | 2.06 µM [falling, partial curve]
6 | O=C(Cc1ccc(-c2ccccc2)cc1)Nc1ccccn1 |  | 6.51 µM [falling, single point] | 
7 | Cc1[nH]c2ccccc2c1CN1CCc2ccccc2C1 |  | 4.11 µM [rising, single point] | 6.51 µM [falling, single point]
8 | COc1ccc(-c2cc(-c3cccs3)c(C#N)c(SCC(=O)NCc3ccco3)n2)cc1 | -21.2 | 8.2 µM [rising, partial curve] | 
9 | CCN(C(=O)COC(=O)/C(=C/c1ccccc1)n1nnnc1C)C1CCCCC1 |  | 4.11 µM [falling, partial curve] | 
10 | CCOC(=O)CSc1nnc(CSc2nc(C)cc(C)n2)n1Cc1ccco1 | 11.3 |  | 
11 | CN(Cc1ccc(F)cc1)C(=O)c1cccc(S(=O)(=O)N2CCN(Cc3ccccc3)CC2)c1 | -33.5 |  | 20.6 µM [falling, partial curve, poor fit]
12 | COc1ccc(CNC(=O)CCNS(=O)(=O)c2ccc(NC(C)=O)cc2)cc1OC | -6 | 0.00517 µM [rising, full curve] | 
13 | O=C1N[C@@H](Cc2ccccc2)C(=O)N1CCN1CCOCC1 | -20.6 | 23.1 µM [falling, partial curve] | 0.103 µM [falling, full curve, poor fit]
14 | CCn1cc([N+](=O)[O-])c(C(=O)N2N=C(c3ccccc3)CC2c2ccc([N+](=O)[O-])cc2)n1 (configuration not stated) | 15.2 | 2.59 µM [rising, full curve] | 
15 | O=C(NCc1nnc(SCC(=O)N2CCCCCC2)o1)c1ccco1 | -7.75 | 0.082 µM [falling, full curve, poor fit] | 
16 | Cc1ccc2c(c1)c1ncn(Cc3ccc(F)cc3)c(=O)c1n2C | -7.74 | 0.731 µM [rising, full curve, poor fit] | 0.731 µM [rising, single point]
17 | Cc1ccc(S(=O)(=O)NNC(=O)c2ccccc2O)cc1 | -17.7 | 2.06 µM [falling, partial curve] | 
18 | Cn1c(CNC(=O)Nc2ccccc2Cl)nnc1SCc1ccccc1 | 31.7 | 7.31 µM [rising, partial curve] | 0.58 µM [falling, partial curve]

In the list so far, 2 contain a nitro group on carbon:
Row | SMILES | cell number change [%] | AC50 [1] | AC50 [2]
4 | O=C1c2ccccc2C(=O)N1C(CO)C(O)c1ccc([N+](=O)[O-])cc1 (configuration not stated) | 15.3 |  | 
14 | CCn1cc([N+](=O)[O-])c(C(=O)N2N=C(c3ccccc3)CC2c2ccc([N+](=O)[O-])cc2)n1 (configuration not stated) | 15.2 | 2.59 µM [rising, full curve] | 

Additional compounds.

Row | SMILES | cell number change [%] | AC50 [1] | AC50 [2]
19 | O=C(Cc1cccc2ccccc12)Nc1ccc(Br)cc1C(=O)O | 3.23 |  | 
20 | CCOC(=O)C1=C(COC(=O)c2ccc(OC(C)C)cc2)NC(=O)NC1C (configuration not stated) | 49.1 | 2.59 µM [rising, single point] | 5.17 µM [rising, partial curve]
21 | COC(=O)c1[nH]c2cccc(OC)c2c1NC(=O)CCN1CCN(c2cccc(Cl)c2)CC1 | 13.3 | 2.91 µM [rising, full curve] | 2.06 µM [rising, partial curve]
22 | O=C(CSc1nc2[nH]ncc2c(=O)[nH]1)Nc1ccc(F)cc1 | -12.8 |  | 
23 | COc1cccc(-c2ccc3ncnc(NCc4ccc5c(c4)OCO5)c3c2)c1 | 4.14 | 13 µM [rising, partial curve, poor fit] | 
24 | CC(C)(C)NC(=O)CN(C(=O)CNS(=O)(=O)c1ccc(Cl)cc1)c1ccc2c(c1)OCCO2 | 8.11 |  | 
25 | CC(=O)NC(CC(=O)Nc1ccc(S(=O)(=O)N2CCCC2)cc1)c1ccccc1 (configuration not stated) | -5.39 | 0.116 µM [falling, full curve, poor fit] | 
26 | O=C(CCN1CCN(S(=O)(=O)c2ccc(F)cc2)CC1)Nc1ccccc1F | 61.1 | 0.58 µM [rising, single point] | 29.1 µM [rising, single point]
27 | CC(C)(C)c1cc[n+](-c2[nH]c(=O)sc2/C=N/N=C(\[O-])c2cccnc2)cc1 |  | 0.58 µM [rising, single point] | 
28 | Cc1ccc(-c2nc(NCc3cccnc3)c3ccccc3n2)cc1 | 13.8 | 0.461 µM [rising, full curve, poor fit] | 
29 | COc1ccc(-n2nc(C(=O)NCC(=O)NCCCN3CCOCC3)c3ccccc3c2=O)cc1OC | 23 | 2.31 µM [rising, partial curve] | 0.231 µM [rising, full curve, poor fit]
30 | c1ccn(-c2ccc(-c3ccn[nH]3)cc2)c1 | 72.2 |  | 20.6 µM [rising, single point]
31 | CCOc1ccc(-c2cc(CCCC(=O)NCCc3ccc(OC)c(OC)c3OC)no2)cc1 | 149 |  | 
32 | O=C(NCCS(=O)(=O)N1CCN(c2ccccc2F)CC1)c1ccc2c(c1)OCO2 | 18.2 | 8.2 µM [rising, partial curve, poor fit] | 
33 | CCOc1ccc(N2C(=O)CC(N3CCN(c4ccc(Cl)cc4)CC3)C2=O)cc1 (configuration not stated) | 34.8 |  | 29.1 µM [rising, single point]
34 | CC(=O)Nc1ccc(NC(=O)CCOc2cc(C)ccc2C)cc1 | 194 |  | 18.4 µM [rising, partial curve]
35 | COc1ccc(-c2ccc(C(c3c(C)[nH][nH]c3=O)c3c(C)[nH][nH]c3=O)o2)c([N+](=O)[O-])c1 | -21.6 | 5.17 µM [falling, partial curve, poor fit] | 
36 | CCOC(=O)N1CCN(CC(=O)Nc2c(C(=O)OC)[nH]c3ccccc23)CC1 | 3.53 | 6.51 µM [rising, single point] | 
